Experimental data taken from PubChem BioAssay AID2685 (National Center for Advancing Translational Sciences (NCATS), 2010).
This is one part of the list. Further columns of the screen follow, without active or inactive calls. Compounds called inactive in the main read-out are mostly missing here. Potencies come from curve fits of mixed quality, noted in brackets.

Experiment: qHTS Assay for Lipid Storage Modulators in Drosophila S3 Cells;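 on cell number change: cells counted by Cell Tracker Red CMTPX staining in the red channel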
Details: BODIPY lipid droplet fluorescence, 18-24 h; for cell number change: measured here: cell count max response, cells fed with added oleic acid
Method in brief: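 Drosophila S3 cells loaded with oleic acid (400 uM, as added) and compounds at several concentrations; lipid droplets imaged by 488-nm laser-scanning cytometry, 500–530 nm intensity and object ratio to cell channel. Percent activity normalized to 20 uM Triacsin C.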

[1] = measured here: cell number channel AC50, cells fed with added oleic acid
[2] = measured here: lipid fluorescence (Fed channel) AC50, cells fed with added oleic acid

SMILES	cell number change	AC50 [1]	AC50 [2]
COc1cc(NS(=O)(=O)c2ccc3c(c2)C(C)(C)C(=O)N3C)cc(OC)c1	-23.9%	–	–
O=C(O)c1cc(-c2ccccc2Cl)n[nH]1	7.83%	–	–
C=CCN1C(=O)/C(=C/c2ccccc2)S/C1=N/c1nccs1	-5.31%	0.116 µM [falling, full curve, poor fit]	0.116 µM [rising, full curve]
CCOCCCNC(=O)c1ccc(C2SCC(=O)N2Cc2ccccc2)cc1 (stereo not drawn)	-6.74%	–	6.51 µM [rising, single point]
O=C(OC(c1ccc(NS(=O)(=O)c2ccccc2)cc1)(C(F)(F)F)C(F)(F)F)c1ccccc1	-50.1%	2.31 µM [falling, partial curve, poor fit]	18.4 µM [falling, single point]
CC1=CC(C)(C)N(S(=O)(=O)c2ccc(C)cc2)c2ccc(C)cc21	2.93%	–	0.164 µM [falling, full curve]
Cc1cc(C)c2oc(-c3ccc(Cl)c(NC(=O)c4ccc(C#N)cc4F)c3)nc2c1	–	–	1.84 µM [rising, partial curve]
CCOc1cnc(-c2ccc(OC)cc2)o1	8.58%	–	29.1 µM [rising, single point]
C[C@@H]1CN(c2c(F)c(N)c3c(=O)c(C(=O)O)cn(C4CC4)c3c2F)C[C@H](C)N1	-22.6%	5.17 µM [falling, partial curve]	3.26 µM [falling, full curve]
CC(C)(CNC(=O)c1cc2ccccc2o1)N1CCOCC1	3.35%	–	–
O=C(Cc1ccc(F)cc1)N(c1ccccc1)C1C=CS(=O)(=O)C1 (stereo not drawn)	-8.86%	0.58 µM [falling, single point]	–
O=C(CN1C(=O)C2C3C=CC(C3)C2C1=O)Nc1cccc2c1CCCC2 (stereo not drawn)	–	–	29.1 µM [falling, single point]
CCCCn1c(N)c(N(CCC(C)C)C(=O)c2oc3ccc(OCC)cc3c2C)c(=O)[nH]c1=O	68.5%	–	–
C=CCSc1nc2c(c(=O)n(C)c(=O)n2C)n1CC	9.26%	–	29.1 µM [rising, single point]
CC(C)(C)c1cc(C(=O)NNC(=O)Nc2ccccc2)n(Cc2ccccc2)n1	-31.7%	14.6 µM [falling, single point]	29.1 µM [falling, single point]
C=CCN1C(=O)c2ccc(C(=O)N3CCC(C(=O)OCC)CC3)cc2C1=O	-18.9%	0.058 µM [falling, full curve, poor fit]	–
Cc1ccc(-c2nnc(CSc3nnc(C)s3)o2)cc1	-0.14%	–	–
Cc1ccc(NC(=O)c2ccc3nc[nH]c3c2)nc1	-2.16%	–	–
COc1cccc(/C=C2\SC(=O)N(CCC(=O)NC3CCS(=O)(=O)C3)C2=O)c1 (stereo not drawn)	-1.18%	6.51 µM [falling, single point]	–

Quoted at random: two compounds from above
SMILES	cell number change	AC50 [1]	AC50 [2]
Cc1ccc(NC(=O)c2ccc3nc[nH]c3c2)nc1	-2.16%	–	–
CCOCCCNC(=O)c1ccc(C2SCC(=O)N2Cc2ccccc2)cc1 (stereo not drawn)	-6.74%	–	6.51 µM [rising, single point]

Later entries:

SMILES	cell number change	AC50 [1]	AC50 [2]
CCN(CC)S(=O)(=O)c1ccc(S(=O)(=O)NCC2CCCO2)cc1 (stereo not drawn)	15.5%	–	–
Cc1cccc2[nH]c3c(N4CCC5(CC4)OCCO5)ncnc3c12	-32.9%	1.46 µM [falling, partial curve, poor fit]	11.6 µM [falling, partial curve]
O=C(Nc1ccccc1)OCCNC(=O)c1cccc(Br)c1	-18.2%	–	16.4 µM [falling, single point]
Cc1nc2nc(-c3cccnc3)nn2c(C)c1Cl	–	2.91 µM [rising, partial curve]	2.06 µM [rising, full curve]
COc1ccc(C2CC(c3ccccc3)=NN2C(=O)CSc2ncn[nH]2)cc1 (stereo not drawn)	38.8%	0.0517 µM [rising, full curve, poor fit]	–
COc1ccc(-n2nc(C(=O)N3CCN(Cc4ccc5c(c4)OCO5)CC3)c3ccccc3c2=O)cc1	23.1%	–	8.2 µM [rising, partial curve]
COc1ccc(-n2nnc3c(=O)n(Cc4ccccc4C)cnc32)cc1	-1.35%	–	36.6 µM [falling, partial curve, poor fit]
COc1ccc(NC(=O)CS(=O)(=O)c2ccccc2)cc1	29.1%	4.11 µM [rising, full curve, poor fit]	29.1 µM [rising, single point]
Cc1nnc(SCC(=O)Nc2cccc(S(=O)(=O)NC3=NCCCCC3)c2)n1Cc1ccccc1	40%	0.00651 µM [rising, full curve]	–
Cc1ccc(CNC(=O)C2CCN(S(=O)(=O)c3cnc[nH]3)CC2)cc1	-16.8%	0.731 µM [falling, full curve]	–
Cc1cc2c(cc1C)NC1=C(N2)OC(c2cccc(O)c2)C1=O (stereo not drawn)	-2.73%	–	0.0326 µM [rising, full curve, poor fit]
CC(C)CN(C(=O)COC(=O)CCC(=O)c1ccc(Cl)cc1)c1c(N)n(Cc2ccccc2)c(=O)[nH]c1=O	-42%	18.4 µM [falling, partial curve]	–
Cc1c(Cl)cccc1NC(=O)CSC(N)=O	-6.99%	–	7.31 µM [falling, partial curve, poor fit]
COC(=O)C(CC(=O)c1ccc(C)cc1)n1cccn1 (stereo not drawn)	25.3%	–	29.1 µM [rising, single point]
CCOC(=O)c1cnc(SCC(=O)OCC(=O)N(CC)C2CCS(=O)(=O)C2)nc1N (stereo not drawn)	-50%	29.1 µM [falling, single point]	13 µM [rising, partial curve]
CCOC(=O)c1[nH]c2ccccc2c1NC(=O)CN1CCCCC1	-13.1%	–	6.51 µM [falling, single point]
CCCc1ccc(C(=O)CN2C(=O)C(=O)N(C3CCCC3)C2=O)cc1	13.8%	–	–
CCN1CCN(c2nnc(-c3ccccc3)c3ccccc23)CC1	37.8%	–	6.51 µM [rising, single point]
Cc1cccc(NC(=O)[C@@H](CC(C)C)NC(=O)[C@@H]2Cc3ccccc3CN2)c1	17.9%	–	0.58 µM [falling, single point]
